Record: PubChem BioAssay AID1259308 (NCATS, 2017)
Here is a random part of about 59,000 reagents. About 1,510 of them (2.6%) count as active. 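Calls use total luciferase alone and ignore viability, so some active siRNAs may act by altering cell number.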 Reagents against one gene are numbered here. Further read-outs or replicates are left out here.

- Aim: 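Candidate targets for better recombinant protein yield in mammalian cells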 (primary screen)
- Cell system: human HEK293 embryonic kidney cells stably expressing firefly luciferase (HEK-CMV-Luc2-Hygro)
- Reagents: single siRNA against human genes, 0.8 pmol siRNA per well
- Duration: 72 h
- Measured: 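Luciferase light (ONE-Glo) measured on one replicate plate set and viability (CellTiter-Glo) on the other, scaled to a negative control siRNA, with robust z-scores and luciferase per cell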
- Reading the numbers: total luciferase, z-score and total luciferase, % of control: higher = more reporter protein produced
- Active means: 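Active when the median/MAD z-score for overall luciferase is greater than 3; a gene was taken forward for validation with new siRNAs if at least two of its three siRNAs passed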
- Meaning of the calls: active = raised luciferase; inactive = no rise

{"Gene": "ARVCF (ARVCF delta catenin family member)", "siRNA no.": 1, "total luciferase, z-score": -0.451, "total luciferase, % of control": 72.9, "Outcome": "inactive"}
{"Gene": "ARVCF (ARVCF delta catenin family member)", "siRNA no.": 2, "total luciferase, z-score": -0.187, "total luciferase, % of control": 78.2, "Outcome": "inactive"}
{"Gene": "ARVCF (ARVCF delta catenin family member)", "siRNA no.": 3, "total luciferase, z-score": 0.917, "total luciferase, % of control": 100, "Outcome": "inactive"}
{"Gene": "HELLS (helicase, lymphoid specific)", "siRNA no.": 1, "total luciferase, z-score": 1.68, "total luciferase, % of control": 115, "Outcome": "inactive"}
{"Gene": "HELLS (helicase, lymphoid specific)", "siRNA no.": 2, "total luciferase, z-score": -0.356, "total luciferase, % of control": 74.8, "Outcome": "inactive"}
{"Gene": "HELLS (helicase, lymphoid specific)", "siRNA no.": 3, "total luciferase, z-score": 0.567, "total luciferase, % of control": 93.2, "Outcome": "inactive"}
{"Gene": "AKR1B10 (aldo-keto reductase family 1 member B10)", "siRNA no.": 1, "total luciferase, z-score": 0.204, "total luciferase, % of control": 85.9, "Outcome": "inactive"}
{"Gene": "AKR1B10 (aldo-keto reductase family 1 member B10)", "siRNA no.": 2, "total luciferase, z-score": -0.0943, "total luciferase, % of control": 80, "Outcome": "inactive"}
{"Gene": "AKR1B10 (aldo-keto reductase family 1 member B10)", "siRNA no.": 3, "total luciferase, z-score": -0.0706, "total luciferase, % of control": 80.5, "Outcome": "inactive"}
{"Gene": "SCRIB (scribble planar cell polarity protein)", "siRNA no.": 1, "total luciferase, z-score": -1.12, "total luciferase, % of control": 59.6, "Outcome": "inactive"}
{"Gene": "SCRIB (scribble planar cell polarity protein)", "siRNA no.": 2, "total luciferase, z-score": -0.699, "total luciferase, % of control": 68, "Outcome": "inactive"}
{"Gene": "SCRIB (scribble planar cell polarity protein)", "siRNA no.": 3, "total luciferase, z-score": -0.376, "total luciferase, % of control": 74.4, "Outcome": "inactive"}
{"Gene": "SETSIP (SET like protein)", "siRNA no.": 1, "total luciferase, z-score": -0.0123, "total luciferase, % of control": 81.6, "Outcome": "inactive"}
{"Gene": "SETSIP (SET like protein)", "siRNA no.": 2, "total luciferase, z-score": 0.479, "total luciferase, % of control": 91.4, "Outcome": "inactive"}
{"Gene": "SETSIP (SET like protein)", "siRNA no.": 3, "total luciferase, z-score": 0.879, "total luciferase, % of control": 99.4, "Outcome": "inactive"}
{"Gene": "PGAM5", "siRNA no.": 1, "total luciferase, z-score": 4.71, "total luciferase, % of control": 176, "Outcome": "active"}
{"Gene": "PGAM5", "siRNA no.": 2, "total luciferase, z-score": -0.55, "total luciferase, % of control": 70.9, "Outcome": "inactive"}
{"Gene": "PGAM5", "siRNA no.": 3, "total luciferase, z-score": -0.815, "total luciferase, % of control": 65.7, "Outcome": "inactive"}
{"Gene": "PRSS55 (serine protease 55)", "siRNA no.": 1, "total luciferase, z-score": 0.349, "total luciferase, % of control": 88.8, "Outcome": "inactive"}
{"Gene": "PRSS55 (serine protease 55)", "siRNA no.": 2, "total luciferase, z-score": 0.268, "total luciferase, % of control": 87.2, "Outcome": "inactive"}
{"Gene": "PRSS55 (serine protease 55)", "siRNA no.": 3, "total luciferase, z-score": 3.11, "total luciferase, % of control": 144, "Outcome": "active"}
{"Gene": "LOC145845", "siRNA no.": 1, "total luciferase, z-score": -0.0913, "total luciferase, % of control": 80.1, "Outcome": "inactive"}
{"Gene": "LOC145845", "siRNA no.": 2, "total luciferase, z-score": -0.733, "total luciferase, % of control": 67.3, "Outcome": "inactive"}
{"Gene": "LOC145845", "siRNA no.": 3, "total luciferase, z-score": 0.836, "total luciferase, % of control": 98.5, "Outcome": "inactive"}
{"Gene": "SLC75A1", "siRNA no.": 1, "total luciferase, z-score": 3, "total luciferase, % of control": 142, "Outcome": "active"}
{"Gene": "SLC75A1", "siRNA no.": 2, "total luciferase, z-score": -0.231, "total luciferase, % of control": 77.3, "Outcome": "inactive"}
{"Gene": "SLC75A1", "siRNA no.": 3, "total luciferase, z-score": 1.18, "total luciferase, % of control": 105, "Outcome": "inactive"}
{"Gene": "IFNB1 (interferon beta 1)", "siRNA no.": 1, "total luciferase, z-score": 0.235, "total luciferase, % of control": 86.6, "Outcome": "inactive"}
{"Gene": "IFNB1 (interferon beta 1)", "siRNA no.": 2, "total luciferase, z-score": -0.305, "total luciferase, % of control": 75.8, "Outcome": "inactive"}
{"Gene": "IFNB1 (interferon beta 1)", "siRNA no.": 3, "total luciferase, z-score": -1.61, "total luciferase, % of control": 49.8, "Outcome": "inactive"}
{"Gene": "CASP8AP2 (caspase 8 associated protein 2)", "siRNA no.": 1, "total luciferase, z-score": 5.5, "total luciferase, % of control": 191, "Outcome": "active"}
{"Gene": "CASP8AP2 (caspase 8 associated protein 2)", "siRNA no.": 2, "total luciferase, z-score": 6.75, "total luciferase, % of control": 216, "Outcome": "active"}
{"Gene": "CASP8AP2 (caspase 8 associated protein 2)", "siRNA no.": 3, "total luciferase, z-score": 3, "total luciferase, % of control": 142, "Outcome": "active"}

Taken from above.
For “Outcome”, PGAM5 #2 shows inactive
SCRIB (scribble planar cell polarity protein) #1, Outcome: inactive
HELLS (helicase, lymphoid specific) #1, Outcome → inactive
